The nature of the assay: qHTS Assay for Lipid Storage Modulators in Drosophila S3 Cells.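 As to cell number change: cells counted by Cell Tracker Red CMTPX staining in the red channel.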 Conditions: BODIPY lipid droplet fluorescence, 18-24 h; for cell number change: measured here: cell count max response, cells fed with added oleic acid. The gist of the method:
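Drosophila S3 cells got compounds at several concentrations plus oleic acid (400 uM solution). Laser-scanning cytometry with 488 nm excitation read lipid droplets at 500-530 nm and cells at 575-640 nm. Percent activity was relative to 20 uM Triacsin C.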
For orientation: qHTS replaces the single test concentration by a dilution series.

[1] abbreviates: measured here: cell number channel AC50, cells fed with added oleic acid.
The mark [2] stands for this setting: measured here: lipid fluorescence (Fed channel) AC50, cells fed with added oleic acid.

Some of the results follow. Shown are side measurements of this screen, not its main read-out; they come without a call. Most of these compounds were active or inconclusive in the main read-out, so they are no random draw. Words in brackets tell the shape of the fitted curve; partial curves, single points and poor fits give uncertain potencies.

Consider `CC(C)(C=O)C1=CC(=O)c2ccccc2C1=O`, for which the cell number change is -49.1%. In addition, the AC50 – broadly, the concentration at which the activity in the assay is half-maximal – under setting [1] is 2910 nM [falling, full curve]. The AC50 under setting [2] is 4610 nM [falling, full curve]. With `Cc1cc(C)nc(NNS(=O)(=O)c2c(C)cc(C(C)(C)C)cc2C)n1`, the cell number change stood at 89.7%. Under setting [1], the AC50 is 25900 nM [rising, single point]. Besides, the AC50 under setting [2] was 6.51 nM [falling, full curve, poor fit]. As for `Cc1cccc(NC(=O)C2c3ccccc3Oc3ccccc32)n1`, the cell number change was determined as 12.1%. For the same compound, under setting [2], the AC50 was 820 nM [rising, full curve, poor fit].

In the case of `CCOC(=O)C(C)n1cnc2c(nnn2-c2ccc(F)cc2)c1=O` (configuration not stated), the cell number change is -1.73%. On to `CC(OC(=O)CCCCCN=C1NS(=O)(=O)c2ccccc21)C(=O)Nc1cc(Cl)cc(Cl)c1` (configuration not stated), for which the cell number change worked out at 7.57%. In addition, under setting [2], the AC50 is 32600 nM [falling, single point].

`COc1ccc(CCNc2nc(N3CCCCC3)nc(N3CCCCC3)n2)cc1OC`: the cell number change is -34.8%. The AC50 under setting [1] is 29100 nM [falling, single point]. Turning to `CCCCN1C(=O)C(=O)N(CC(=O)Nc2cccc(C(C)=O)c2)C1=O`, the cell number change was -10.7%. Moreover, the AC50 under setting [2] was 130 nM [falling, partial curve, poor fit].

`Cc1sc2ncnc(NCC(c3ccco3)N(C)C)c2c1C` (configuration not stated): under setting [1], the AC50 was 3660 nM [falling, partial curve]. In the case of `C(=N\n1cnnc1)/c1ccc(-c2ccccc2)cc1`, the cell number change is 15.2%. Further, under setting [2], the AC50 is 7310 nM [rising, partial curve]. With `CC1(C)O[C@@H]2[C@H](O1)[C@@H](CO)O[C@H]2n1cnc2c(N)ncnc21`, the cell number change is 6.26%. Under setting [2], the AC50 is 146 nM [rising, full curve, poor fit].

Take `COC(=O)Cc1ccc(O)c(N)c1`: the cell number change was -9.54%. Under setting [2], the AC50 was 16400 nM [falling, partial curve, poor fit]. In the case of `COc1cc(NC(=O)c2cccc3c2C(=O)N(C2CCCCC2)C3)cc(OC)c1OC`, the cell number change is -4.42%. In addition, the AC50 under setting [2] is 580 nM [rising, single point]. Consider `COC(=O)c1onc(C(=O)c2ccccc2)c1C(=O)OC`, for which the cell number change amounted to 2.01%. The AC50 under setting [2] was 92 nM [falling, full curve]. For `Cc1ccc(C(C)C)c(OCC(=O)N2CCN(c3ncccn3)CC2)c1`, the cell number change was -10%. The AC50 under setting [2] is 2910 nM [rising, single point]. Consider `O=C(/C=C/c1ccccc1)NNC1=NS(=O)(=O)c2ccccc21`, for which the cell number change came out at 14.2%. Besides, the concentration at half-maximal activity (AC50) under setting [2] was 18400 nM [rising, partial curve].

`Cc1ccc2oc3nc(C)c(C(=O)O)cc3c(=O)c2c1`: the cell number change is -9.68%. For the same compound, the half-maximal activity concentration (AC50) under setting [2] was 1640 nM [falling, partial curve]. For the compound `Nn1c(SCC(=O)NC2CCCc3ccccc32)nnc1-c1cccs1` (configuration not stated), the cell number change turned out to be 0.129%. For the same compound, under setting [2], the AC50 was 731 nM [rising, single point]. `CC(=O)c1ccc(N2CCN(C(=O)Cc3cccs3)CC2)cc1`: the cell number change was -15.3%. `Cc1ccccc1NC(=O)Cc1nc(COC(=O)CCNS(=O)(=O)c2ccccc2)cs1`: the half-maximal activity concentration (AC50) under setting [1] was 920 nM [rising, partial curve]. On to `CCOc1ccc(OCC(=O)OCc2cc(=O)n3cc(Br)ccc3n2)cc1`, for which the cell number change turned out to be 10.2%. For the same compound, under setting [2], the AC50 was 326 nM [falling, full curve, poor fit]. On to `CC1CCN(c2nc(N3CCCCC3)nc(N3CCCCC3)n2)CC1`, for which the cell number change was -62.5%. Moreover, under setting [1], the half-maximal activity concentration (AC50) was 116 nM [falling, full curve, poor fit]. Regarding `CCOc1ccc(-c2nc(N)ncc2-c2ccc(OC)cc2)c(O)c1`, the cell number change is -1.85%. For the same compound, under setting [2], the AC50 is 2910 nM [rising, single point].

Consider `CC1CN(c2ccc(S(=O)(=O)N3CCCC3)cn2)CC(C)O1` (configuration not stated), for which the cell number change is -0.819%. Moreover, the AC50 under setting [1] is 1300 nM [rising, partial curve]. Further, the AC50 under setting [2] was 3660 nM [rising, partial curve, poor fit]. As for `Cc1ccc2c(c1)C1(OCCO1)C(=O)N2`, the cell number change is 45.8%. Under setting [1], the half-maximal activity concentration (AC50) was 29100 nM [rising, single point]. For the compound `COC(=O)COc1ccc(S(=O)(=O)NCc2ccco2)cc1`, the cell number change is -16.5%. Under setting [2], the AC50 was 5800 nM [falling, full curve]. On to `O=C(O)c1ccc(CNC(=S)Nc2ccccc2)cc1`, for which the cell number change is -2.55%. Moreover, the AC50 under setting [2] is 146 nM [falling, single point]. On to `O=C(NCc1ccccc1)N1CCC(n2cnc3cc(F)ccc32)CC1`, for which the cell number change was -2.87%. Moreover, the AC50 under setting [2] is 1840 nM [rising, partial curve]. Consider `CC1CCCC(C)N1C(=O)COC(=O)C12CC3CC(CC(Cl)(C3)C1)C2` (configuration not stated), for which the cell number change was -21.4%. Moreover, the AC50 under setting [2] was 65.1 nM [rising, full curve, poor fit]. As to `O=c1cc(N2CCN(c3ccccc3)CC2)[nH]c(=O)n1Cc1ccc(F)cc1`, the cell number change stood at 45.5%. Further, under setting [1], the AC50 is 5170 nM [rising, partial curve]. Also, under setting [2], the AC50 is 3260 nM [rising, single point]. Consider `Cc1cc(C)n(-c2ccc(C(=O)OCC(=O)Nc3ccc(S(=O)(=O)N4CCOCC4)cc3)cc2)n1`, for which the cell number change turned out to be 4.46%. Also, the AC50 under setting [2] is 146 nM [falling, full curve, poor fit]. For `COc1ccc(S(=O)(=O)N2CCCN(CC(=O)Nc3ccc(NC(C)=O)cc3)CC2)cc1`, the cell number change is -0.417%. Further, the AC50 under setting [2] was 164 nM [rising, full curve, poor fit]. As to `CCN=C1SC(CC(=O)Nc2sc(C)c(C)c2C(=O)OC)C(=O)N1CC` (configuration not stated), the cell number change stood at 1.08%. Under setting [2], the AC50 was 206 nM [rising, full curve]. Regarding `CN(C)/C=C/C(=O)c1ccc([N+](=O)[O-])c(CS(=O)(=O)c2ccc(Cl)cc2)c1`, the cell number change is 17.9%. The AC50 under setting [2] was 16400 nM [rising, single point].

Consider `CCN(CC)S(=O)(=O)c1ccc(N2CCCC2)c(NS(=O)(=O)c2ccc(F)cc2)c1`, for which the cell number change is -30%. Besides, the AC50 under setting [1] was 4610 nM [falling, partial curve]. Further, the AC50 under setting [2] was 1300 nM [falling, full curve].

Consider `O=C(CSc1n[nH]c(=O)n1C1CC1)N1N=C(c2ccc(Cl)cc2)CC1c1ccco1` (configuration not stated), for which the cell number change stood at 0.169%. Turning to `CCn1nc(C)c(Br)c1Nc1ccc(Br)cc1`, the cell number change turned out to be 0.291%. Under setting [1], the AC50 is 1640 nM [rising, partial curve]. Regarding `COc1cc(C(=O)NCC2CCCCC2)ccc1OCc1c(C)noc1C`, the cell number change is -11.4%. In addition, the AC50 under setting [2] is 517 nM [rising, full curve].

Turning to `CC(C)(C)NC(=S)Nc1cccc(C(F)(F)F)c1`, the cell number change is -107%. For the same compound, the AC50 under setting [1] is 29100 nM [falling, single point]. Besides, the AC50 under setting [2] was 29100 nM [falling, single point].

As for `COc1ccc(C(NC(=O)C(C)C)c2c(O)ccc3ccccc23)cc1OC` (configuration not stated), the cell number change turned out to be 6.83%. Under setting [2], the AC50 was 1160 nM [rising, single point]. Take `CC(C)c1nc(SCC(=O)NCC2CCCO2)c2c(=O)n(C)c(=O)n(C)c2n1` (configuration not stated): the cell number change amounted to 20.9%. For the same compound, the half-maximal activity concentration (AC50) under setting [2] is 29100 nM [rising, single point]. Turning to `COc1ccccc1Oc1ccc2c(c1)C(=O)N(c1ccc(Br)c3cccnc13)C2=O`, the cell number change was -8.66%. Also, under setting [2], the AC50 is 5170 nM [falling, single point]. Take `CS(=O)(=O)c1ccc(Cl)c(NC(=O)C2CCN(S(=O)(=O)c3cccs3)CC2)c1`: the cell number change is -3.68%. Further, the AC50 under setting [2] is 18400 nM [falling, single point]. Regarding `Cc1ccc(CNC(=S)NC2CCC(C(C)(C)C)CC2)cc1` (configuration not stated), the cell number change was 23.1%. For `CC(C)(C)OC(=O)CNC(=O)c1[nH]cnc1C(=O)Nc1ccc(CNC(=O)OC(C)(C)C)cc1`, the cell number change is -6.9%. Under setting [2], the AC50 is 32600 nM [falling, single point]. For `O=C(Nc1ccc(N2CCOCC2)cc1)c1cccc2ccccc12`, the AC50 under setting [2] was 29100 nM [rising, partial curve, poor fit]. For `CC(NC(=O)c1cc(S(=O)(=O)N2CCOCC2)cn1C)c1ccccc1` (configuration not stated), the cell number change was determined as 19.9%. In addition, under setting [2], the AC50 was 16400 nM [rising, partial curve]. Regarding `O=C(Nc1ccc(N2CCOCC2)c([N+](=O)[O-])c1)c1ccco1`, the cell number change was -20.6%. In addition, the concentration at half-maximal activity (AC50) under setting [2] was 146 nM [falling, full curve, poor fit]. For the compound `O=C(NCCc1ccccc1)c1ccc(CS(=O)(=O)Cc2ccccc2F)o1`, the cell number change was -0.133%. Moreover, under setting [2], the AC50 was 326 nM [rising, full curve]. As for `COC(=O)c1cccc(N(CC(=O)NCC2CCCO2)C(=O)CCC(=O)Nc2cc(C)on2)c1` (configuration not stated), the cell number change was determined as 12.5%. Also, the AC50 under setting [2] is 920 nM [falling, full curve, poor fit].

On to `COc1ccc(OC)c(C(=O)COC(=O)CNC(=O)c2ccccc2)c1`, for which the cell number change is -18.8%. The AC50 under setting [2] was 29100 nM [falling, single point]. With `CCN(C(=O)c1ccco1)c1nc(-c2ccc(OC)cc2)cs1`, the cell number change was -6.56%. Under setting [2], the AC50 is 3260 nM [falling, single point].

For the compound `O=C(NC1CCCCC1)C(c1ccncc1)N(C(=O)c1ccco1)c1ccc(F)cc1` (configuration not stated), the cell number change was -8.97%. With `Cc1c(C#N)c(NC(=O)C(C)C)n(Cc2ccccc2)c1C`, the cell number change was -24.2%. Moreover, under setting [2], the AC50 is 1160 nM [rising, single point]. `COc1cccc(NC(=O)CCC2CCN(C(=O)c3cccc(NC(C)=O)c3)CC2)c1`: under setting [2], the AC50 is 6510 nM [rising, single point]. Turning to `Cc1ccc(NS(=O)(=O)c2ccc(OCC(N)=O)cc2)cc1`, the cell number change was 2.03%. In addition, the AC50 under setting [2] was 35500 nM [rising, single point]. `COc1cccc(CC(=O)Nc2cc(S(=O)(=O)N3CCCCC3)ccc2C)c1`: the cell number change turned out to be 3.79%.

As to `CCOC(=O)C(=O)Nc1nc(-c2ccccc2)c(CC)s1`, the cell number change is -8.25%. For the same compound, under setting [2], the half-maximal activity concentration (AC50) was 41.1 nM [falling, full curve]. On to `Cc1ccc(S(C)(=O)=O)cc1S(=O)(=O)Nc1ccccc1`, for which the cell number change turned out to be 2.58%. Under setting [2], the AC50 is 731 nM [rising, full curve, poor fit]. Consider `O=C(CSc1ncn[nH]1)NCCC(c1ccccc1)c1ccccc1`, for which the cell number change amounted to 53.2%. Further, the AC50 under setting [1] was 25900 nM [rising, single point]. Besides, the AC50 under setting [2] is 29100 nM [rising, partial curve]. As for `COc1ccc(-c2cc(C(F)(F)F)nc(SCCC(=O)N3CCCC3)n2)cc1`, the cell number change turned out to be 24.4%. Moreover, the AC50 under setting [2] was 20600 nM [rising, partial curve, poor fit].

Values taken from PubChem BioAssay AID2685 (National Center for Advancing Translational Sciences (NCATS), 2010).
